US8487001B2, “Medium-chain length fatty acids, glycerides and analogues as neutrophil survival and activation factors” (ProMetic BioSciences Inc., priority 2001, dated 2013)

How the values were obtained:
bone marrow cells = assay: In vivo chemoprotection: bone marrow cell count; details: mouse
Method: (§1) To examine the immunoprotective effect of MCT or other compounds, mice were pre-treated orally at day-3, -2 and -1 or treated intravenously at day 0 with the test compound. Mice were sacrificed at day +5 by cardiac puncture and cervical dislocation. Then, cell suspensions were prepared from thymus, spleen and bone marrow as follow.
(§2) Tissues were crushed in PBS buffer and contaminating erythrocytes were lysed in ACK buffer (155 mM NH4Cl, 12 mM NaHCO3, 0.1 mM EDTA, pH 7.3) for 5 minutes. Cells were then collected by centrifugation and washed three times in PBS and resuspended in tissue culture medium. Cells were counted on a hemacytometer.
(§3) Chemoprotection studies were performed as described in example 16 except that mice were (post)-treated with MCT, sodium caprylate, sodium caprate or capric acid per o.s. on day 1, 2, 3 and 4.

spleen cells = assay: In vivo chemoprotection: spleen cell count; details: mouse
Method: as §1, §2, §3

CCCCCCCCCC(=O)OCC(=O)N(C)C [capric acid N,N-dimethyl-acetamide, Capric Acid N,N-dimethylacetamide ester]
Bone Marrow # Cells (×10^6) (bone marrow cells): 37.4 ± 5.9 ×10^6
effect on bone marrow cell count compared to cyclophosphamide treated mice (bone marrow cells): significantly enhances the bone marrow cell count
effect on spleen cell count compared to cyclophosphamide treated mice (spleen cells): No significant effect
